Laboratory results reported in PMC6748086.
These are yes or no findings as the source states them, for the method shown. Binding seen in cells or lysates may run through a third protein. Some results given as binding are weak or reduced against the parent protein; the word gives no strength. For part of these data: Where a sequence is shown, tags or fusion partners need not be part of it.

Protein sequences, listed by entry. Tags and fused reporters are not part of them. Lines headed by an entry give the natural chain unless they say otherwise; changes in a name come on top. Residues count along the entry.
UniProt P49715: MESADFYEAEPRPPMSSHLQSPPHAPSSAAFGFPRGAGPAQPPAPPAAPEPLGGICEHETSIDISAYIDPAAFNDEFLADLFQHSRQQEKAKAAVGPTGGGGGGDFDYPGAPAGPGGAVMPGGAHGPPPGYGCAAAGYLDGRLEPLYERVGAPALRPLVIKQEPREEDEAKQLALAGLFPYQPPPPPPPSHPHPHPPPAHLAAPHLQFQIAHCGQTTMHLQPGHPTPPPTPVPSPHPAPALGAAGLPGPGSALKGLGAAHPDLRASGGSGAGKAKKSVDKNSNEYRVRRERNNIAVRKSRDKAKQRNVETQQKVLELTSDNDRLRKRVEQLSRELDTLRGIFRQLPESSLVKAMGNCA
GST-C4 (103–212) of C/EBPα: residues 103-212 of P49715

What was measured:
endogenous MORC2 = target: T1, endogenous MORC2 (UniProt Q9Y6X9); assay: co-IP; IP of endogenous C/EBPα and MORC2; cells not named
T1 sequence: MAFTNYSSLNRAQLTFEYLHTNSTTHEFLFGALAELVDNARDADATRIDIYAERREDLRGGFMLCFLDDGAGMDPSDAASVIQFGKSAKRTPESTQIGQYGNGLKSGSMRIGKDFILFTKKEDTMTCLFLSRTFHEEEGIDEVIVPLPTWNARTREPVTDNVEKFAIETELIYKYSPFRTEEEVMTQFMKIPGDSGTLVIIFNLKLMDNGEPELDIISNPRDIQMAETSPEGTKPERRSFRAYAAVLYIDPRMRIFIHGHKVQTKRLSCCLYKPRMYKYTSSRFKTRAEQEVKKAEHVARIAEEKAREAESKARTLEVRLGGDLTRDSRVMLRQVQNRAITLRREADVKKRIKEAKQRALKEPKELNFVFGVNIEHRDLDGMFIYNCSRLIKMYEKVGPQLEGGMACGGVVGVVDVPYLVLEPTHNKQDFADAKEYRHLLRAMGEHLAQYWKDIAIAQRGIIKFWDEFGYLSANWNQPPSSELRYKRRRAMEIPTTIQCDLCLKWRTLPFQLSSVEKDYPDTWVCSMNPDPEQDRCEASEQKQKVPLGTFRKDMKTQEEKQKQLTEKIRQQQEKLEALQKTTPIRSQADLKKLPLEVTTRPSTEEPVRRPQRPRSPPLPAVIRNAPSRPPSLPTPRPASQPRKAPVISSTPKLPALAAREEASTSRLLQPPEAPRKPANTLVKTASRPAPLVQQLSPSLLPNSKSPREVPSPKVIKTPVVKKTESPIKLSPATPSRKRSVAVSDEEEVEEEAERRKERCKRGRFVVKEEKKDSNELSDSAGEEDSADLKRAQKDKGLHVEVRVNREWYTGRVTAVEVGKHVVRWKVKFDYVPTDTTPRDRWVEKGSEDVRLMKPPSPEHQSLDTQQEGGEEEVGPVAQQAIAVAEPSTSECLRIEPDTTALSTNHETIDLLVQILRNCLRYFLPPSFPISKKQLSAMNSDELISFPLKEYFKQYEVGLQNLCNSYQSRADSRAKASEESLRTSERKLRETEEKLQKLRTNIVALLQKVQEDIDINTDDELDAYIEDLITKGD

[1] = target: T2, amino acids 657–781 of GST-MORC2 (human) (UniProt Q9Y6X9); assay: pull-down; GST-MORC2, GST-MORC2 deletions or GST incubated with in vitro transcribed and translated C/EBPα; bound proteins detected by western blot (His-tag antibody in Fig. 1a); only the target purified
T2 sequence: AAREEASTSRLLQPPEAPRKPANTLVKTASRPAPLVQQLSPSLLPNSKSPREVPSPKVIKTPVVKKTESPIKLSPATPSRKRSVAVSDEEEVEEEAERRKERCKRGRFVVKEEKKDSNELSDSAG

GST-MORC2 (human) = target: T3, GST-MORC2 (human) (UniProt Q9Y6X9); assay: as above
T3 sequence: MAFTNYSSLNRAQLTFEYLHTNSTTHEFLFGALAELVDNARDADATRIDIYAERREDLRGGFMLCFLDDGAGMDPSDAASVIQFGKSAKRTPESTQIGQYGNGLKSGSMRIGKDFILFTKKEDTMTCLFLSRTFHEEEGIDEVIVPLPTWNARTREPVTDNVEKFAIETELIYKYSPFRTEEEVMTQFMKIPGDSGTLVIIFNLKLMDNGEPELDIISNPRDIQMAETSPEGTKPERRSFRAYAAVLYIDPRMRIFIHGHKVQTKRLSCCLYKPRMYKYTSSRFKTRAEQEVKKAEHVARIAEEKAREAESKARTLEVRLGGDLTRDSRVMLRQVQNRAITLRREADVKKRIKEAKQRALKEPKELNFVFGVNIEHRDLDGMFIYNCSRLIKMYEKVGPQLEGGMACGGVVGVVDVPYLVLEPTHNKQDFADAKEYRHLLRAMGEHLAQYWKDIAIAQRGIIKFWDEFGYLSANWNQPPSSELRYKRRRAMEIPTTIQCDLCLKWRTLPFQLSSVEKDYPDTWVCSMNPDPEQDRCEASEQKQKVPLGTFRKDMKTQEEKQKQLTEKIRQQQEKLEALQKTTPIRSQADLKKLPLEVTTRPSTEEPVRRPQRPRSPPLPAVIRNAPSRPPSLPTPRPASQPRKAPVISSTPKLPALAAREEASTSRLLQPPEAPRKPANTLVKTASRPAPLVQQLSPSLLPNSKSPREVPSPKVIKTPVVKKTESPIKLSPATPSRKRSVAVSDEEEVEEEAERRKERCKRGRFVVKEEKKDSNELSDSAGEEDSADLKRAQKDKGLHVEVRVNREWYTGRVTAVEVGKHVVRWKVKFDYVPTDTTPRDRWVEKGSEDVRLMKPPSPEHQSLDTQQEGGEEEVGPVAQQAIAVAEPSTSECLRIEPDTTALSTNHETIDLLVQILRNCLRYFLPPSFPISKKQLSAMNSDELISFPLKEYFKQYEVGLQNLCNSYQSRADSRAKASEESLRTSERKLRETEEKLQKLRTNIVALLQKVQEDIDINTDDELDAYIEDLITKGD

Flag-MORC2 (human) = target: T4, Flag-MORC2 (human) (UniProt Q9Y6X9); assay: co-IP; HEK-293T cells transiently transfected with His-C/EBPα plus Flag-MORC2 for 36 h; total lysates immunoprecipitated and blotted with Flag-tag or His-tag antibody (reciprocal)
T4 sequence: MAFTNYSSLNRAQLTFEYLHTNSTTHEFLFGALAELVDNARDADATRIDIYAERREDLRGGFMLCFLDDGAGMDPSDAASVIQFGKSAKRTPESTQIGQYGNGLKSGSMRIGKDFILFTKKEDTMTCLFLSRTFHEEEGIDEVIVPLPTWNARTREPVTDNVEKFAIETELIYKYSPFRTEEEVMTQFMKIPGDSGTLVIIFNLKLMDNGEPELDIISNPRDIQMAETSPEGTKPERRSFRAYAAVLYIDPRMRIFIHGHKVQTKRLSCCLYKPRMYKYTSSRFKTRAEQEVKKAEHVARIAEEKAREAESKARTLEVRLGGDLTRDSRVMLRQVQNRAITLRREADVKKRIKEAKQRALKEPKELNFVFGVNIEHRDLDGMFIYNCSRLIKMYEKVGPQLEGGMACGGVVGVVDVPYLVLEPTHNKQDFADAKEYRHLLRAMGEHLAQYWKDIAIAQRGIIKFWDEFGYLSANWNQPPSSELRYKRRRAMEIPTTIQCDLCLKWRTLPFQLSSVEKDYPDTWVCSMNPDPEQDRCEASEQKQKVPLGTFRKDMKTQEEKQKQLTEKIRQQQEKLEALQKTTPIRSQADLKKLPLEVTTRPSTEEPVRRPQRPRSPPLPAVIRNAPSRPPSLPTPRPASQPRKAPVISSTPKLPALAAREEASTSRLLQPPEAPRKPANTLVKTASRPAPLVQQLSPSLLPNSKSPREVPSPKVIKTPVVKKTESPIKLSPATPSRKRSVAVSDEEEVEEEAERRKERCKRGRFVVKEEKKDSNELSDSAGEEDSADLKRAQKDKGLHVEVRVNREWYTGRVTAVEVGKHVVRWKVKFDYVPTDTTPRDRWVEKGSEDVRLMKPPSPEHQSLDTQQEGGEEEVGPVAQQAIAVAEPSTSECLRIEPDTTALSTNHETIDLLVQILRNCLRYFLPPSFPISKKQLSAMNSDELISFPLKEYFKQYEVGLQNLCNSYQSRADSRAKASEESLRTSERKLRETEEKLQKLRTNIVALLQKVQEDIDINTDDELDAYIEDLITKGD

full length GST-C/EBPα = full length GST-C/EBPα (UniProt P49715); assay: pull-down; purified GST, GST-C/EBPα full length or truncation and deletion constructs incubated with in vitro-translated MORC2; bound proteins detected by western blot; only the target purified
[2] = target: GST-C4 (103–212) of C/EBPα (UniProt P49715); assay: as above

Molecule: endogenous C/EBPα (from UniProt P49715 1-358)
- binding (endogenous MORC2): binds

Molecule: in vitro-transcribed and translated His-C/EBPα (from UniProt P49715 1-358)
- binding [1]: binds
- binding (GST-MORC2 (human)): binds

Molecule: His-C/EBPα (from UniProt P49715 1-358)
- binding (Flag-MORC2 (human)): binds

B1: in vitro-translated His-MORC2 (protein, UniProt Q9Y6X9 1-1032)
chain: MAFTNYSSLNRAQLTFEYLHTNSTTHEFLFGALAELVDNARDADATRIDIYAERREDLRGGFMLCFLDDGAGMDPSDAASVIQFGKSAKRTPESTQIGQYGNGLKSGSMRIGKDFILFTKKEDTMTCLFLSRTFHEEEGIDEVIVPLPTWNARTREPVTDNVEKFAIETELIYKYSPFRTEEEVMTQFMKIPGDSGTLVIIFNLKLMDNGEPELDIISNPRDIQMAETSPEGTKPERRSFRAYAAVLYIDPRMRIFIHGHKVQTKRLSCCLYKPRMYKYTSSRFKTRAEQEVKKAEHVARIAEEKAREAESKARTLEVRLGGDLTRDSRVMLRQVQNRAITLRREADVKKRIKEAKQRALKEPKELNFVFGVNIEHRDLDGMFIYNCSRLIKMYEKVGPQLEGGMACGGVVGVVDVPYLVLEPTHNKQDFADAKEYRHLLRAMGEHLAQYWKDIAIAQRGIIKFWDEFGYLSANWNQPPSSELRYKRRRAMEIPTTIQCDLCLKWRTLPFQLSSVEKDYPDTWVCSMNPDPEQDRCEASEQKQKVPLGTFRKDMKTQEEKQKQLTEKIRQQQEKLEALQKTTPIRSQADLKKLPLEVTTRPSTEEPVRRPQRPRSPPLPAVIRNAPSRPPSLPTPRPASQPRKAPVISSTPKLPALAAREEASTSRLLQPPEAPRKPANTLVKTASRPAPLVQQLSPSLLPNSKSPREVPSPKVIKTPVVKKTESPIKLSPATPSRKRSVAVSDEEEVEEEAERRKERCKRGRFVVKEEKKDSNELSDSAGEEDSADLKRAQKDKGLHVEVRVNREWYTGRVTAVEVGKHVVRWKVKFDYVPTDTTPRDRWVEKGSEDVRLMKPPSPEHQSLDTQQEGGEEEVGPVAQQAIAVAEPSTSECLRIEPDTTALSTNHETIDLLVQILRNCLRYFLPPSFPISKKQLSAMNSDELISFPLKEYFKQYEVGLQNLCNSYQSRADSRAKASEESLRTSERKLRETEEKLQKLRTNIVALLQKVQEDIDINTDDELDAYIEDLITKGD
- binding (full length GST-C/EBPα): binds
- binding [2]: binds
